What all share (assay): TOXCAT (ToxR-driven CAT reporter of transmembrane self-association); TM domain between MBP and ToxR in the membrane of E. coli MM39; CAT activity of lysates as percent of glycophorin A
For assay [1], the target named is TM2 domain of S1R with the double mutation G87L/G88L in the TOXCAT construct (guinea pig) (UniProt Q60492).
The target of assay [2] is TM2 domain of S1R with G91I in the TOXCAT construct (guinea pig) (UniProt Q60492).
In assay [3] the target is TM2 domain of S1R in the TOXCAT construct (between MBP and ToxR) (guinea pig).

Results are given in words; binding and its absence hold for the method and conditions named. Some binding calls cover weakened binding; strength is not graded here. For part of these data: Where a sequence is shown, tags or fusion partners need not be part of it.

For the molecule WVFVNALLWMGAMCLLHASL (domain or fragment, UniProt Q60492 81-100) [TM2 domain of S1R with the double mutation G87L/G88L in the TOXCAT construct], the binding entry in assay [1] is listed as “no binding”.

In the case of WVFVNAGGWMIAMCLLHASL (domain or fragment, UniProt Q60492 81-100) [TM2 domain of S1R with G91I in the TOXCAT construct], the binding result in assay [2] is recorded as “no binding”.

WVFVNAGGWMGAMCLLHASL (domain or fragment) [TM2 domain of S1R in the TOXCAT construct (between MBP and ToxR)]: the binding entry in assay [3] is “binds”.

For the origin of these results see PMC4106346, “The Oligomeric States of the Purified Sigma-1 Receptor Are Stabilized by Ligands” (The Journal of Biological Chemistry, 2014).
